# PubChem BioAssay AID2417 (National Center for Advancing Translational Sciences (NCATS), 2010)
# Among all 140,000 compounds or so, about 4,300 (3.1%) were called active. Inconclusive means that the source gave no clear call. Such entries were picked first, then a sample of the others.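 Rule for the calls: active = readout at or below -70, meaning at least 70% loss of cells showing the perinucleolar compartment, a nuclear body marking cancer cells; inconclusive = readout between -30 and a set limit; inactive = the rest.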
# Assay: High Content Assay for Compounds that inhibit the Assembly of the Perinucleolar Compartment;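 note: plate controls were DMSO wells for no effect and camptothecin positive control wells for full effect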
# Settings: PC3M PTB-GFP, PNC prevalence imaging, 16 h; at 10 µM; stronger effect = lower value
# How it was run: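 Compounds are pinned in duplicate onto adhered PC3M cells stably expressing GFP-tagged PTB and incubated 16 h at 37 C. Cells are then fixed, nuclei stained with Hoechst, and PNC-positive cells counted.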
row,SMILES,"activity change (PNC), negative = inhibition"
1,CC(C)Oc1ccc(N2CC(C(=O)OCC(=O)NCc3ccccc3)CC2=O)cc1 (configuration not stated),inactive: 35.5%
2,Cn1cc(Cl)c(C(=O)N2CCN(c3ncccn3)CC2)n1,inactive: 76.1%
3,CCOc1ccc(N(CC(=O)Nc2ccccc2C(=O)NC(C)CC)S(C)(=O)=O)cc1 (configuration not stated),inactive: 33.1%
4,CCN(CC)CCN=CC1=C(O)CNC1=O,inconclusive: -34.6%
5,Cc1ccc(NS(=O)(=O)c2cc(C(=O)N3CCN(C)CC3)ccc2C)cc1,inconclusive: -41.7%
6,Cc1c(/C=N/NC(=O)c2ccc(O)cc2)c2ccccn2c1C(=O)c1ccc(F)cc1,inactive: 36.8%
7,O=C(NCCOc1ccccc1)C(c1ccccc1)c1ccccc1,inactive: 2.53%
8,CCN1C=C(Cc2ccc(F)cc2)C2=C(C1)C(c1ccc(F)cc1)C(C#N)=C(N)O2 (configuration not stated),inactive: 28.1%
9,O=C(CS(=O)(=O)c1cn(Cc2ccccc2Cl)c2ccccc12)N1CCOCC1,inconclusive: -43.2%
10,O=C(NC1CCS(=O)(=O)C1)/C(=C\c1ccccc1)NC(=O)c1ccccc1 (configuration not stated),inconclusive: -72.6%
11,CCN(CC)S(=O)(=O)c1cccc(-c2nnc(-c3ccc(C)cc3)o2)c1,inconclusive: -48%
12,CCOC(=O)N1CCC(NC(=O)c2cc(S(=O)(=O)N3CCOCC3)ccc2F)CC1,inconclusive: -54.9%
13,O=C(CN1C(=O)CCC1=O)c1ccc(-c2ccccc2)cc1,active: -81.6%
14,O=C(CSc1ccsc1[N+](=O)[O-])NCCc1ccc(Cl)cc1,inconclusive: -36%
15,CCOC(=O)c1c(C)nc(-c2ccccc2)nc1NC(C)=O,inconclusive: -48.3%
16,CC(C)(C)c1cn(-c2ccc(F)cc2)c(=S)[nH]1,inconclusive: -44.7%
17,CCN(CC)c1cc(C)c2cc(NC(=O)c3ccc(Br)o3)ccc2n1,inconclusive: -51.6%
18,Cc1ccccc1CN1CCNC(=O)C1CC(=O)O (configuration not stated),active: -83.6%
19,CC(=O)C(C)Oc1ccc2c3c(c(=O)oc2c1)CCCCC3 (configuration not stated),inconclusive: -73.8%

# Entries listed so far that have a Cl atom:
row,SMILES,"activity change (PNC), negative = inhibition"
2,Cn1cc(Cl)c(C(=O)N2CCN(c3ncccn3)CC2)n1,inactive: 76.1%
9,O=C(CS(=O)(=O)c1cn(Cc2ccccc2Cl)c2ccccc12)N1CCOCC1,inconclusive: -43.2%
14,O=C(CSc1ccsc1[N+](=O)[O-])NCCc1ccc(Cl)cc1,inconclusive: -36%

# (continued)

row,SMILES,"activity change (PNC), negative = inhibition"
1,O=C(CSc1nc2ccccc2s1)Nc1ccc2c(c1)oc1ccccc12,inactive: 31%
2,COCCCNC(=O)COc1ccc(Br)cc1Cl,active: -89.8%
3,CSc1nc(N2CCOCC2)c2c(c1C#N)CC(C)(C)OC2,inactive: 31.4%
4,O=C(CCc1ccc(Oc2cc([N+](=O)[O-])cc([N+](=O)[O-])c2)cc1)Nc1cccc(Cl)c1,inactive: -15.9%
5,COc1ccc(NC(=O)CSc2c(C)n[nH]c2C)cc1,inactive: -14.4%
6,COCCn1c(SCC(=O)Nc2ccc(S(=O)(=O)N(C)C)cc2)nc2ccccc21,inconclusive: -42%
7,Cc1nonc1NCn1nnc2ccccc21,inconclusive: -30.4%
8,COC(=O)c1[nH]c(C)c(/C(O)=C2\C(=O)C(=O)N(CCCN3CCOCC3)C2c2ccccn2)c1C (configuration not stated),inactive: -2.21%
9,CCOC(=O)C1CCCN(c2c(NCc3ccco3)c(=O)c2=O)C1 (configuration not stated),inconclusive: -47%
10,Cc1cc(C)nc(NS(=O)(=O)c2ccc(N)cc2)n1,inactive: 4.08%
11,COc1ccc(CNC(=O)c2c(O)c3cccc4c3n(c2=O)CCC4)cc1OC,inconclusive: -33.3%
12,Cc1nn(C)c(C)c1S(=O)(=O)N(CC(=O)N1CCc2ccccc21)c1ccc(C(C)C)cc1,inactive: 8.59%
13,O=C(CSc1nnc(-c2ccco2)c(-c2ccco2)n1)Nc1ccccc1,inactive: 19.8%
14,CC(NC(=O)C1CCC(CNc2c(N3CCOCC3)c(=O)c2=O)CC1)c1ccccc1 (configuration not stated),inconclusive: -61.5%
15,CC(C)(C)C(=O)N1CCC[C@H]1C(O)(c1ccccc1)c1ccccc1,inconclusive: -72.3%
16,O=C(NCc1ccco1)c1cc(S(=O)(=O)N2CCCc3ccccc32)ccc1Cl,inconclusive: -40.7%
17,Cc1nc2sc(C(c3cccs3)N3CCN(C(=O)c4ccco4)CC3)c(O)n2n1 (configuration not stated),inactive: 18.5%
18,COc1cc(CNC(=O)OCC(C)C)cc(OC)c1OC,inconclusive: -51.6%
19,Cc1ccc(OCc2nnc(SCC(=O)Nc3ccc4c(c3)OCO4)n2C)cc1,inconclusive: -33%

# Single values from the entries so far:
# For activity change (PNC), negative = inhibition, O=C(CCc1ccc(Oc2cc([N+](=O)[O-])cc([N+](=O)[O-])c2)cc1)Nc1cccc(Cl)c1 is listed with inactive: -15.9%
# For activity change (PNC), negative = inhibition, COCCn1c(SCC(=O)Nc2ccc(S(=O)(=O)N(C)C)cc2)nc2ccccc21 is listed with inconclusive: -42%

# More structures.

row,SMILES,"activity change (PNC), negative = inhibition"
1,CCOC(=O)c1c(CSc2ccc(C)cc2)oc2ccc(O)cc12,inactive: 38.8%
2,Cc1ccccc1N=Nc1c(C)[nH]n(C(N)=S)c1=O,active: -113%
3,O=S(=O)(c1ccc(NC(=S)Nc2ccc3c(c2)OCO3)cc1)N1CCOCC1,inactive: 3.26%
4,CC(=Nc1ccccc1C)C1=C(O)CSC1=O,inconclusive: -42.6%
5,COC(=O)C1=C(C)NC(=O)C1(NC(=O)c1cccnc1)C(F)(F)F (configuration not stated),inconclusive: -50.2%
6,NC(=O)c1c(NC(NC(=O)c2ccco2)(C(F)(F)F)C(F)(F)F)sc2c1CCCC2,inconclusive: -36.4%
7,CCOC(=O)C1C2C=CC3(CN(Cc4cccs4)C(=O)C13)O2 (configuration not stated),inconclusive: -47.9%
8,O=c1c2c(ncn2C2CCCC2)n(Cc2ccccc2)c(=O)n1CCOc1ccccc1,inactive: -27.3%
9,COc1ccc(/C=C(\NC(=O)c2ccc(OC)c(OC)c2)C(=O)NCCc2c[nH]c3ccccc23)cc1,inconclusive: -75.2%
10,CCCCn1c(SC(C)C(N)=O)nc2cc(C(=O)OC)ccc2c1=O (configuration not stated),inactive: -0.949%
11,CCOC(=O)c1c(NC(=O)CSc2ncn[nH]2)sc(C)c1C,inconclusive: -36.4%
12,Cc1cc(C)cc(Oc2ccccc2/C=C\C(=O)O)c1,active: -86.4%
13,O=C(CNC(=O)Cc1ccccc1)NCC(=O)OCC(=O)c1cccc2ccccc12,inactive: -16.4%
14,O=C(Nc1nnc(-c2ccccc2)s1)c1cc(S(=O)(=O)N2CCOCC2)c(Cl)cc1Cl,inconclusive: -32.4%
15,COc1ccc(/C(C)=N/NC(=S)NCc2ccco2)cc1,inconclusive: -50.7%
16,Cc1c(C(=O)C(=O)N2CC=C(c3ccccc3)CC2)c2ccccc2n1C,inconclusive: -31.7%
17,COCCN1C(=O)C(O)=C(C(=O)c2cccs2)C1c1ccccc1 (configuration not stated),inactive: 63.3%
18,Cc1cccc(OCC(=O)Nc2ccccc2-c2ccccc2)c1,inconclusive: -65.2%
19,Cc1cc(N2CCN(C/C=C/c3ccccc3)CC2)n2ncnc2n1,inactive: -3.91%
